Earlier results as cited in patent US12611399B2, “Movement disorders” (Definium Therapeutics US, Inc., priority 2021, dated 2026).
For at least one compound, name, drawing or mass did not settle the structure.

The chains behind the UniProt entries cited, without tags or fusion partners.
UniProt P14416, whole entry: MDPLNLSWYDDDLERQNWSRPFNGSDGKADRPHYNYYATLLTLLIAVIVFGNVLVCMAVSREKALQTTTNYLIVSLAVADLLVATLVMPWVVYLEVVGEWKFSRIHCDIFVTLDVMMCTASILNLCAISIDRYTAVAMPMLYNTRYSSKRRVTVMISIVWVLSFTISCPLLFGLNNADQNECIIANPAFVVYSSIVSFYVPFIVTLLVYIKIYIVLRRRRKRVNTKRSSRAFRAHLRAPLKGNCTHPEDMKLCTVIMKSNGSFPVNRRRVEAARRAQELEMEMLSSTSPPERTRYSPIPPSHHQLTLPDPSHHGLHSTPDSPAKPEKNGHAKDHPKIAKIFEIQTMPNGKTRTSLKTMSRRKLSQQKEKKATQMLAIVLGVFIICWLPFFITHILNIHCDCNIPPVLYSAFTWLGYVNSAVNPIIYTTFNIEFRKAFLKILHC

Columns and labels:
D2 receptors = D2 receptors (Homo sapiens, UniProt P14416); settings: result in words
[1] = system: serotonin 5-HT1 receptors; settings: result in words

CN(C)CCc1c[nH]c2cccc(OP(=O)(O)O)c12 [psilocybin, 3-(2-dimethylaminoethyl)-1H-indol-4-yl] dihydrogen phosphate]
affinity for D2 receptors (D2 receptors): no affinity

CN(C)CCc1c[nH]c2ccccc12 [DMT, dimethyltryptamine]
agonist potency at serotonin 5-HT1 receptors [1]: potent agoinsts
